These are yes or no findings as the source states them, for the method shown. Binding seen in cells or lysates may run through a third protein. Some entries that bind do so weakly or less than the wild type.
What was measured:
[1] = biological target: CRM1 in WT cells (endogenous) (mouse (endogenous in MEFs)) (UniProt Q6P5F9); assay: proximity ligation; PR65 and CRM1 in WT cells, untreated or irradiated with 10 Gy
[2] = biological target: CRM1 in WT cells (endogenous) (mouse (endogenous in MEFs)) (UniProt Q6P5F9); assay: condition: only cells pretreated with LMB (1 ng/ml); proximity ligation; PR65 and CRM1 in WT cells pretreated with leptomycin B (LMB, 1 ng/ml)
[3] = biological target: Flag-CRM1 (chromosome region maintenance 1) (UniProt O14980); assay: co-IP; HEK293 cells transfected with Flag-CRM1, mRuby2-PR65 and RanQ69L plasmids; whole-cell immunoprecipitation at 72 h with Flag-beads; western blot with anti-PR65 and anti-Flag

By UniProt entry, the sequences of proteins in these tests, tags left out.
UniProt Q6P5F9: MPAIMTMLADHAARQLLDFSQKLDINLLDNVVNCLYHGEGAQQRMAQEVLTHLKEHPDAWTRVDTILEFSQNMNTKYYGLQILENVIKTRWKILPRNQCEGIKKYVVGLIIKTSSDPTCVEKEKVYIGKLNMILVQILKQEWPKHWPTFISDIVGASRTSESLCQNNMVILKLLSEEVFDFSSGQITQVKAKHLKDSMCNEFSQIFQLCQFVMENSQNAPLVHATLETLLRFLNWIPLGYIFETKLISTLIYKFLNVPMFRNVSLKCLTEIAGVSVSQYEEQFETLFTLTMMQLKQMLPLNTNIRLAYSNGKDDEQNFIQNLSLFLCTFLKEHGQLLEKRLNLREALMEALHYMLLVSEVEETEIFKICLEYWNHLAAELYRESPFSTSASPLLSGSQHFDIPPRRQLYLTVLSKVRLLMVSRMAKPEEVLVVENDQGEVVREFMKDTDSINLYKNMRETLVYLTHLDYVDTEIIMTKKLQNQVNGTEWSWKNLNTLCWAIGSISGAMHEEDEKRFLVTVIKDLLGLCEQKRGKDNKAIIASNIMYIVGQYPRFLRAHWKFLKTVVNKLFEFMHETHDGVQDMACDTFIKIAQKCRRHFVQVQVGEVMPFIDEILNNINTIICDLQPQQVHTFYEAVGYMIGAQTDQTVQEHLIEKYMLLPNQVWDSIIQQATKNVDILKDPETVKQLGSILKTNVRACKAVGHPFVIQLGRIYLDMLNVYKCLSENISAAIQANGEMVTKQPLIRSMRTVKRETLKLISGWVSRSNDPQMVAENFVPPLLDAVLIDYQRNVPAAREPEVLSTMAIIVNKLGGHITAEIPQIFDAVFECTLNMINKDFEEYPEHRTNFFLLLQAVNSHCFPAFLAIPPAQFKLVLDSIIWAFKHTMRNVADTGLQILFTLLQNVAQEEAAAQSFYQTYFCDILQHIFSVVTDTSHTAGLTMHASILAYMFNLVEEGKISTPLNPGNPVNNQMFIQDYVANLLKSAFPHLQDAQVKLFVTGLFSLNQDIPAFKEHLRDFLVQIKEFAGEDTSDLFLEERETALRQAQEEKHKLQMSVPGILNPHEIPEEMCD
UniProt O14980: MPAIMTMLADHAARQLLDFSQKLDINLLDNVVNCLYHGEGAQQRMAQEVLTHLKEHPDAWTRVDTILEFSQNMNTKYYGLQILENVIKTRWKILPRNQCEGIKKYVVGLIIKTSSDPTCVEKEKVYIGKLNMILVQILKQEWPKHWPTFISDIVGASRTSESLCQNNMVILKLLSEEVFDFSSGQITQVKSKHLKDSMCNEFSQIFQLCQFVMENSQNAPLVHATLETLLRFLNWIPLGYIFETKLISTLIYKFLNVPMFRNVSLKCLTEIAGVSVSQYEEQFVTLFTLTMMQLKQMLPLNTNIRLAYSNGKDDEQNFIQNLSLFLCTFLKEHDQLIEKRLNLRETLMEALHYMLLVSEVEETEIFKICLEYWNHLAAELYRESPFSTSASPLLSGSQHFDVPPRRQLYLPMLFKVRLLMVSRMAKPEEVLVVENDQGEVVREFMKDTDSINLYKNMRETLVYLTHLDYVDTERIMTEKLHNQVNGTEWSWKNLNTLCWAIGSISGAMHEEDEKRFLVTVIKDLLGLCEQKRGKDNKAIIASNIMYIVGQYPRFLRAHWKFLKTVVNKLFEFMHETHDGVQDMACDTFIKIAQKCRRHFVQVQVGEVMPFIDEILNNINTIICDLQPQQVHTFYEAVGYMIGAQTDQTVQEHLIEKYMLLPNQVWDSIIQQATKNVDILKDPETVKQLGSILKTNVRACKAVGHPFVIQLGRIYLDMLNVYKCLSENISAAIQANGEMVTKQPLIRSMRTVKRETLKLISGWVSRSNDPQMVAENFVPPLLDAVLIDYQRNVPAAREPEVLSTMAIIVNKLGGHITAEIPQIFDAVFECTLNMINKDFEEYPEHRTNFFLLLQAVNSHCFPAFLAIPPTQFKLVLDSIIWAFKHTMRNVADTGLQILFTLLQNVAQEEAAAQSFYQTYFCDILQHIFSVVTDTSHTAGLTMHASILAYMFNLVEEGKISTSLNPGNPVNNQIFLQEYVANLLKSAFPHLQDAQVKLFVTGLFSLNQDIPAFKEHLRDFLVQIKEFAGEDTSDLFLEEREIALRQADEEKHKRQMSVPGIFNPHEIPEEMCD
UniProt P30153: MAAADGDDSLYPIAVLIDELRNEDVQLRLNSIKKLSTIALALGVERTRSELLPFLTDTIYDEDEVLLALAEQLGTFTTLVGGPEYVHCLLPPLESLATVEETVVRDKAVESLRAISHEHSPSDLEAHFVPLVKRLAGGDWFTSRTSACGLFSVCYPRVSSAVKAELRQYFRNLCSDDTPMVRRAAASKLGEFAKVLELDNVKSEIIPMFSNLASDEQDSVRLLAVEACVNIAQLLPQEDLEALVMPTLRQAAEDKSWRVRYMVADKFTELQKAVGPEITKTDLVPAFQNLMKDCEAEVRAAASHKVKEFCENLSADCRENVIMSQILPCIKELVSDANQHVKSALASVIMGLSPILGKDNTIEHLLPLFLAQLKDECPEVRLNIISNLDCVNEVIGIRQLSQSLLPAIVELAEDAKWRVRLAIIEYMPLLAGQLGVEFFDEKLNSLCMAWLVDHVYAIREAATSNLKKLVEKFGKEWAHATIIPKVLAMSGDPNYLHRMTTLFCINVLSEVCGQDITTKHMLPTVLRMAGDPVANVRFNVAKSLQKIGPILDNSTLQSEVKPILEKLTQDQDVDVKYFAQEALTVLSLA

Row | binding [1] | binding [2] | binding [3] | Substance
1 | binds | no binding | – | PR65 in WT cells (Flag-PR65 WT in PR65 KO MEFs) (from UniProt P30153 1-589)
2 | – | – | binds | mRuby2-PR65 (from UniProt P30153 1-589)
